# According to paper PMC7819943, “Rice protein-binding microarrays: a tool to detect cis-acting elements near promoter regions in rice”:
# Chains of the proteins cited; added tags and fusions are not shown.
# UniProt Q0JBA9, entry or part of it: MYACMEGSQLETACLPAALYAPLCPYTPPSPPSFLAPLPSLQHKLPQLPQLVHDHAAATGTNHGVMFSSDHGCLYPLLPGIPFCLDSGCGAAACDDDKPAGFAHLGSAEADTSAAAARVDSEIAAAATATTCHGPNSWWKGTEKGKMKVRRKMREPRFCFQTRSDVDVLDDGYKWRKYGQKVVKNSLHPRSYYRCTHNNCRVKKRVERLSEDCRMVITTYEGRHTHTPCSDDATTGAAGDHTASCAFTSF
# Some of the results follow.
# Target: OsWRKY34 (Oryza sativa, UniProt Q0JBA9 1-250)
# Test: protein-binding microarray (RPBM); PBS, 2% BSA, 51.3 ng/ul salmon testes DNA, 50 uM zinc acetate, 200 nM TF, 25 C, 1 h; high values mean tight binding
# Conditions: protein: recombinant; tags: N-terminal polyhistidine and DsRed monomer fusion (pET32a); label: CyDye5-dUTP incorporated in the synthesized complementary strand; 3' TTTTT single-stranded linker to array surface; dsDNA, one strand shown
# Summary of the method: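 Transcription factors were made in E. coli BL21-CodonPlus as N-terminal fusions to a polyhistidine tag and DsRed, then purified on Ni–NTA. After primer extension with Cy5-dUTP and blocking with 2% BSA, a custom Agilent array was exposed for 1 h at 25 °C to 200 nM protein in PBS, 2% BSA, salmon testes DNA and 50 µM zinc acetate. Washed arrays were scanned on an Axon 4000B, and the binding signal is per-feature fluorescence intensity in arbitrary units.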
row,Sequence,binding signal
1,CCACGTCTTTCCCCACGACCACGACCGTTCATTTCTTTCCCGGAGTCACCTAGTGCAG,10400 fluorescence intensity (a.u.)
2,GTAACTTACTTTTTTGTTTCAGCCCCTGTAACTTTCCATTCGGAGTCACCTAGTGCAG,9240 fluorescence intensity (a.u.)
3,CTAATTAGCACAGTTGCACACATGTTTTAGCCTTTTGGTCCGGAGTCACCTAGTGCAG,10600 fluorescence intensity (a.u.)
4,AAATGCCCAGCCTAGCCTGAAACCAACCGCAACGAACGCCCGGAGTCACCTAGTGCAG,10300 fluorescence intensity (a.u.)
5,GGCGGTGGCGGTGACGGTGGAGGTGGAGGCGGTGTGGCATCGGAGTCACCTAGTGCAG,8420 fluorescence intensity (a.u.)
6,TCATCTATGGACTTTCATTAATTTCCCATGTTTATTTTTTCGGAGTCACCTAGTGCAG,10300 fluorescence intensity (a.u.)
7,CAACGAAAATACTAACAACATGCACCTGGCCGCGTTGACCCGGAGTCACCTAGTGCAG,13900 fluorescence intensity (a.u.)
8,CACAATATTATCCATGCATATCCCTTGGTTTATAATTAATCGGAGTCACCTAGTGCAG,8810 fluorescence intensity (a.u.)
9,AGCCGCTCCATCCTTACTGTCCTGGTGAATTAATTGGGTACGGAGTCACCTAGTGCAG,11300 fluorescence intensity (a.u.)
10,CTGCAAAGTAACTTTTTTTTTCTGTTTCCTGTTACGTGATCGGAGTCACCTAGTGCAG,8300 fluorescence intensity (a.u.)
11,TAAGATGTTTTGACTTTGGTCAAAGTCAAACTACTTTGAGCGGAGTCACCTAGTGCAG,13200 fluorescence intensity (a.u.)
12,AATTTTTTTCGTTTTACATAATATACTATGTATTATCTATCGGAGTCACCTAGTGCAG,8620 fluorescence intensity (a.u.)
13,CTTAGCCGCGTCGCGCTGCTCTGCTTGATCATCATCACCTCGGAGTCACCTAGTGCAG,10300 fluorescence intensity (a.u.)
14,CTACACTTCACAGCACTGCACTAAACGCTCTTTGGAGGATCGGAGTCACCTAGTGCAG,9470 fluorescence intensity (a.u.)
15,CTTTATTTCCGGTCTTTACACGATGTGCACACAACCTATACGGAGTCACCTAGTGCAG,8260 fluorescence intensity (a.u.)
16,TCAAATTGCACCGGTTTCAATAGTTCAGGGGTCGAGATATCGGAGTCACCTAGTGCAG,8850 fluorescence intensity (a.u.)
17,TTGCCCACACTCTTTTCACATCTATGTATCTATATAGCTACGGAGTCACCTAGTGCAG,10600 fluorescence intensity (a.u.)
18,TGCTACCATCGTCGTGGCTGCGGTGGAGGGAAGGGAGGGGCGGAGTCACCTAGTGCAG,13100 fluorescence intensity (a.u.)
19,CCTCTTTATTCCATTAGCTTTTTTCATCTTCTGCTCCATCCGGAGTCACCTAGTGCAG,10500 fluorescence intensity (a.u.)
20,CTTTTCGTTTTGCTAATTTTGGATTTTATTTTTATTTTTACGGAGTCACCTAGTGCAG,8340 fluorescence intensity (a.u.)
21,TCTTGATGTCTAGCTTCTGTTCGGGTTATGAGGAGGGCTGCGGAGTCACCTAGTGCAG,8380 fluorescence intensity (a.u.)

row,Sequence,binding signal
1,GGAAGCAGTATCTTTTCAAGGGGTGCAGTATTGCAGTGGACGGAGTCACCTAGTGCAG,8040 fluorescence intensity (a.u.)
2,CATTTTTATGCCTTTTTACACCACCGCTGGCTGAACCAAACGGAGTCACCTAGTGCAG,8240 fluorescence intensity (a.u.)
3,CACGATACACATTTAATTCCATACGATCCTACAGGATTATCGGAGTCACCTAGTGCAG,9230 fluorescence intensity (a.u.)
4,GTCTTTACATATTTCGTGTTGCATCGTGAAGCCAATCAATCGGAGTCACCTAGTGCAG,9110 fluorescence intensity (a.u.)
5,GCTCCGTGGGCTGTTTTCACTTCTCTTGGGCTGCTGAGGCCGGAGTCACCTAGTGCAG,8560 fluorescence intensity (a.u.)
6,CACCGCTGCCCGTATCTTCCCCTGCACTACTCACTGACAGCGGAGTCACCTAGTGCAG,8830 fluorescence intensity (a.u.)
7,GCACTATTCACGTTCAACGTTTGATCATTCGTCTTATTTACGGAGTCACCTAGTGCAG,9490 fluorescence intensity (a.u.)
8,CCAGTCTTCGAAGATGCTCGTAGGGGTAGGGTTTGCGTGCCGGAGTCACCTAGTGCAG,9140 fluorescence intensity (a.u.)
9,CGGTAAACTTTTTCTTGCGTTGCTTTGCTTTGCTTTTCTTCGGAGTCACCTAGTGCAG,12700 fluorescence intensity (a.u.)
10,GTAGGGGTCTCGAGGTGTTCAAGTGTGGATTACTCCATAGCGGAGTCACCTAGTGCAG,9710 fluorescence intensity (a.u.)
11,TACTTTTAACTCCACTCGGGTGCTTAGCTCGTCCCTCATCCGGAGTCACCTAGTGCAG,9760 fluorescence intensity (a.u.)
12,AATTTTCCTCACATTTATCCTATATTTATCATTTTTTCCTCGGAGTCACCTAGTGCAG,11800 fluorescence intensity (a.u.)
13,TGACATGGTTCGTTCCCACATGCGCTCGTTTAGACGTCCGCGGAGTCACCTAGTGCAG,9330 fluorescence intensity (a.u.)
14,TTGTTTTCTTCGTTGACGCTTCTAGATTTTTTAACGTTCACGGAGTCACCTAGTGCAG,8840 fluorescence intensity (a.u.)
15,ACACGCTTCACTCTCACGCACGCACACAGCTAGCTACTCGCGGAGTCACCTAGTGCAG,10200 fluorescence intensity (a.u.)
16,CGTTTCAGTAACCGCCATTTTTTCACCAACCAAGTCACGTCGGAGTCACCTAGTGCAG,8610 fluorescence intensity (a.u.)
17,AACAAACTACCGCAAGGCACAAGCCTATTTATGATATAATCGGAGTCACCTAGTGCAG,8840 fluorescence intensity (a.u.)
18,GCTGGATATAGGGATCGATCGGAAGTTTTTTTGGGATATGCGGAGTCACCTAGTGCAG,9530 fluorescence intensity (a.u.)
19,CAATATAAGGGATTTTCAGTTTTTGCTTGCAACGTTTGACCGGAGTCACCTAGTGCAG,8050 fluorescence intensity (a.u.)
20,GATTCATTTTCCTAAGGATTTTTTCCTATATTGCCCTTTGCGGAGTCACCTAGTGCAG,9370 fluorescence intensity (a.u.)
21,TCTCCTGTGTCGCAGCCGACGTCGCCGCCTCTTCTCCCGCCGGAGTCACCTAGTGCAG,8230 fluorescence intensity (a.u.)

# Random excerpt: five records from the list.
row,Sequence,binding signal
13,TGACATGGTTCGTTCCCACATGCGCTCGTTTAGACGTCCGCGGAGTCACCTAGTGCAG,9330 fluorescence intensity (a.u.)
4,GTCTTTACATATTTCGTGTTGCATCGTGAAGCCAATCAATCGGAGTCACCTAGTGCAG,9110 fluorescence intensity (a.u.)
9,CGGTAAACTTTTTCTTGCGTTGCTTTGCTTTGCTTTTCTTCGGAGTCACCTAGTGCAG,12700 fluorescence intensity (a.u.)
14,TTGTTTTCTTCGTTGACGCTTCTAGATTTTTTAACGTTCACGGAGTCACCTAGTGCAG,8840 fluorescence intensity (a.u.)
10,GTAGGGGTCTCGAGGTGTTCAAGTGTGGATTACTCCATAGCGGAGTCACCTAGTGCAG,9710 fluorescence intensity (a.u.)

# The list continues.

row,Sequence,binding signal
1,GTCGAGGTATATATATTCATCTCTATGTCTCGCCGTTGCTCGGAGTCACCTAGTGCAG,9870 fluorescence intensity (a.u.)
2,CTCAAGCAGACTTTCTCACCTACAGCCAATTTTTTAGAAACGGAGTCACCTAGTGCAG,8680 fluorescence intensity (a.u.)
3,TTCAAATATTGTGCGCCCATTTGACCCATCTATTGCAAAACGGAGTCACCTAGTGCAG,9400 fluorescence intensity (a.u.)
4,GGCAGCCACACACACACCACTCCATTTCTGAGCTCTTCTACGGAGTCACCTAGTGCAG,10900 fluorescence intensity (a.u.)
5,AAAGGGGAGTGTTTTAGCATCATTACTTTTTGCCCATGGCCGGAGTCACCTAGTGCAG,9860 fluorescence intensity (a.u.)
6,TCTACCTTTACCCTTTAAGCGCATCTTAATTCGATCCATCCGGAGTCACCTAGTGCAG,8580 fluorescence intensity (a.u.)
7,ACACAGTGGTAGGGGTAGAGGGAGGGTAGAAGAGAAGAGGCGGAGTCACCTAGTGCAG,8770 fluorescence intensity (a.u.)
8,GTGGATAGAGTGGAGGGCGGGACCTTTTTTCCTTTCGTCTCGGAGTCACCTAGTGCAG,10700 fluorescence intensity (a.u.)
9,GGTGATCTCTTATCTTTTATTGTTACTATCTCTGTTCTATCGGAGTCACCTAGTGCAG,11300 fluorescence intensity (a.u.)
10,GCCACGATTGCGACGAGCGGAGGAGGCGGGGAGAGGCGGGCGGAGTCACCTAGTGCAG,8940 fluorescence intensity (a.u.)
11,CGCTGTAGGTTTCCCATTCCCGCCGCCGCCGCCACCGACGCGGAGTCACCTAGTGCAG,9740 fluorescence intensity (a.u.)
12,GAGCGAGGAACCCGGATCGATCCGGGCTGGGTGGGTGGGGCGGAGTCACCTAGTGCAG,12500 fluorescence intensity (a.u.)
13,GAGCGCGGAGAGCATCCCACACCACCCGTCCCATCGCAATCGGAGTCACCTAGTGCAG,10400 fluorescence intensity (a.u.)
14,TAAGTCCCAACCTGTATCCGTCCCCACCTGTCAGTACTTACGGAGTCACCTAGTGCAG,8860 fluorescence intensity (a.u.)
15,ACAAGCTCCTTTGTTTCCTACCATATATGCTCTTCACACTCGGAGTCACCTAGTGCAG,8730 fluorescence intensity (a.u.)
16,AGTCAAAGTGAACTTATTTCCGTGGCGTATATCCCTTATTCGGAGTCACCTAGTGCAG,8050 fluorescence intensity (a.u.)
17,CAATCCTTTTCTTCTCTTCTTCCTGGTCAAATTTTTCCTACGGAGTCACCTAGTGCAG,8750 fluorescence intensity (a.u.)
18,TTCGATTGATGCTAGAGCACATATTACCTCATATAATTTTCGGAGTCACCTAGTGCAG,9130 fluorescence intensity (a.u.)
19,CCTATTTTTGATGTTCCGGATTTTTTCTTTGCGGCCAAAACGGAGTCACCTAGTGCAG,11700 fluorescence intensity (a.u.)
20,CCTTCTCCGACGGCCTCCTCGGCTGCTCCTGGCTCATCGTCGGAGTCACCTAGTGCAG,8680 fluorescence intensity (a.u.)
21,TCTCTCTAGGATCGCCGCCATCCACCACATCCCACGCTTTCGGAGTCACCTAGTGCAG,11800 fluorescence intensity (a.u.)

row,Sequence,binding signal
1,AGAACACTTCAGTTCCTCTGTCTACTGTTTTGATGAGATTCGGAGTCACCTAGTGCAG,8590 fluorescence intensity (a.u.)
2,TTGCCAGGTTCTTTGTCGCTCTGGTAGGTACTTATGTTCACGGAGTCACCTAGTGCAG,9160 fluorescence intensity (a.u.)
3,GTTACACACCGTTGCATTCCCGCGTCGTCCGGATCAGCTCCGGAGTCACCTAGTGCAG,8090 fluorescence intensity (a.u.)
4,AATTGTGCTGTGGTATACACACTCTCCGCGTTCTGGTCTGCGGAGTCACCTAGTGCAG,10600 fluorescence intensity (a.u.)
5,CATCAGGCCCACACACATAAGAAGCGTCATCTACATCGTGCGGAGTCACCTAGTGCAG,8590 fluorescence intensity (a.u.)
6,AAACCTCGCATGCCAATAGTTGGGAACGCCGGGGCGGGGTCGGAGTCACCTAGTGCAG,9340 fluorescence intensity (a.u.)
7,GTCTTTATCTCTCCTCTAATTCCTATGTTTTTCCTGCGGTCGGAGTCACCTAGTGCAG,13000 fluorescence intensity (a.u.)
8,AAGATTTTTTTCTCTCTTTCTGCATCCAAGTCCAATTTCTCGGAGTCACCTAGTGCAG,8680 fluorescence intensity (a.u.)
9,ATCAATCGTTTCACGAGTTCACTGCGCACACTCTCCAAGTCGGAGTCACCTAGTGCAG,8160 fluorescence intensity (a.u.)
10,GCCGTTTGTTGGTTGGTTACGGCTGCGAGCTTGGGCACCGCGGAGTCACCTAGTGCAG,10300 fluorescence intensity (a.u.)
11,GTCGACGTGTCCTACTCATCCACGCCACGTAACCAATTCCCGGAGTCACCTAGTGCAG,9360 fluorescence intensity (a.u.)
12,TTTAATCGTTCGTCTTATTTTAAATTTTCAAAAAACAAACCGGAGTCACCTAGTGCAG,8080 fluorescence intensity (a.u.)
13,ATTCTTACGTAGTGGTCCTCTATGTACTGGTATTATTATACGGAGTCACCTAGTGCAG,8040 fluorescence intensity (a.u.)
14,TAGATGACGCCGTTGATTTTTTTCTCACATATTTGACCATCGGAGTCACCTAGTGCAG,10700 fluorescence intensity (a.u.)
15,CGCGCGTACGCAACGCAACTGCTCTCAATTCAATCTCGCTCGGAGTCACCTAGTGCAG,8940 fluorescence intensity (a.u.)
16,TCGCTTCGTTGACCCCTTGCCGTGTTTGGCTCCTCGACGTCGGAGTCACCTAGTGCAG,10700 fluorescence intensity (a.u.)
17,AATCGCGCGCCCCTCCCTGCTCTTTCAATCTTTTGCATCACGGAGTCACCTAGTGCAG,9360 fluorescence intensity (a.u.)
18,CCTGAGCTTGAACTGTGTTGGTCTTAATTGTTCCTCATGTCGGAGTCACCTAGTGCAG,9780 fluorescence intensity (a.u.)
19,TTTGTCATGTAGAACTTTGCTTATGGATGCATTATGGTTTCGGAGTCACCTAGTGCAG,8530 fluorescence intensity (a.u.)
20,ACTCTCATCTCTTGCATCTATATACTCTTAAGCAGTCAGTCGGAGTCACCTAGTGCAG,8050 fluorescence intensity (a.u.)
21,ACTCACCCTGAACCACACTGCAGCCGTCCGCCTCCTGCAACGGAGTCACCTAGTGCAG,8220 fluorescence intensity (a.u.)
